Data from article PMC4639748.
Results are given in words; binding and its absence hold for the method and conditions named. For some assays here: In cells and extracts the contact can be indirect. Some results given as binding are weak or reduced against the parent protein; the word gives no strength. For some assays here: Tags and fused reporters may be left off the sequences shown.

The chains behind the UniProt entries cited, without tags or fusion partners. Where a name states a change or a piece, a line headed by the entry shows the natural chain unless it says otherwise.
UniProt P50636: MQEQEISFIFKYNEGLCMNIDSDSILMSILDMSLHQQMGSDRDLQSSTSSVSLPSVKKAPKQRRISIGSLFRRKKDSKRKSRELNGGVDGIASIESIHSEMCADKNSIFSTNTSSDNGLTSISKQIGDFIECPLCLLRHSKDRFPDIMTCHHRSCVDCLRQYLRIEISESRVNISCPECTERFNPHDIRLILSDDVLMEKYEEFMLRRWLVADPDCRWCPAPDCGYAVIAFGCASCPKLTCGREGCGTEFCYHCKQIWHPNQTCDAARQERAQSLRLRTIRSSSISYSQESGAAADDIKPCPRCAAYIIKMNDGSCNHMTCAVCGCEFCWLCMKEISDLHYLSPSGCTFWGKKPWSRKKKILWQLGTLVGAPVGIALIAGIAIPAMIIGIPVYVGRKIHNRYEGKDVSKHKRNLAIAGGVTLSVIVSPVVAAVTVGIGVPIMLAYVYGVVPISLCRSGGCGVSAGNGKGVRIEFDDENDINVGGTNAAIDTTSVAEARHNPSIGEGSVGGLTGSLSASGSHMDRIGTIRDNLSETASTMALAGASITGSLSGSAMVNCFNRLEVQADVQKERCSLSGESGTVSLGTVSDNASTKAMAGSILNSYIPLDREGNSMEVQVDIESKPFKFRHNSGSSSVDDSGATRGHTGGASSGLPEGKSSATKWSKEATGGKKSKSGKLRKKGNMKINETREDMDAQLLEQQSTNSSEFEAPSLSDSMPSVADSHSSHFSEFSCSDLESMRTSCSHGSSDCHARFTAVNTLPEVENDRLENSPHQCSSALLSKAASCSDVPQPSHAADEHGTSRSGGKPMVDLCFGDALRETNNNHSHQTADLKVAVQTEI
UniProt Q62696: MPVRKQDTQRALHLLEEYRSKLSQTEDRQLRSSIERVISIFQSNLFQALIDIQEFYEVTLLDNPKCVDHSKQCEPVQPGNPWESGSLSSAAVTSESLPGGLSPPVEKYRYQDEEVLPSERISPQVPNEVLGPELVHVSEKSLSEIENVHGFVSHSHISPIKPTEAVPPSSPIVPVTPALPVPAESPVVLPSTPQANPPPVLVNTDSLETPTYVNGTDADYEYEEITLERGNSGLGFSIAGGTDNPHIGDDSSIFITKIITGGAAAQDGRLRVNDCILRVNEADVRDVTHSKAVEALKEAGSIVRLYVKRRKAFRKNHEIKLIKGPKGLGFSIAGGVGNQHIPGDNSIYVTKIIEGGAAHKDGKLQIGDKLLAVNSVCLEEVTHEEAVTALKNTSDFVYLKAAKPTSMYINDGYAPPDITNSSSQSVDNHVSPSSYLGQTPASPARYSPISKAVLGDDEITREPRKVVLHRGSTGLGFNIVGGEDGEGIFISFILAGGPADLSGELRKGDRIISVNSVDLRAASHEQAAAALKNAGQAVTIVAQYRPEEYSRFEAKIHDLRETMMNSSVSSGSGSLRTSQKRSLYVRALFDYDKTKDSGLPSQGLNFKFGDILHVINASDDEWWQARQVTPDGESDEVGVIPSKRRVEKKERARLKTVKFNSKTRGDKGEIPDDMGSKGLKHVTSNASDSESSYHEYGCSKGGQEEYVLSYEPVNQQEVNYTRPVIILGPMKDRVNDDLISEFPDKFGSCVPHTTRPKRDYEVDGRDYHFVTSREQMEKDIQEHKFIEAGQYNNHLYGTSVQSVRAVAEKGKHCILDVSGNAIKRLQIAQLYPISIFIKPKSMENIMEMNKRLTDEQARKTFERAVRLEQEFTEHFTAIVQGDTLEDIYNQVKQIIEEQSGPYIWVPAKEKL

How the values were obtained:
[1] = biological target: T1, GST-Dorfin (aa 834–840; WT) (mouse) (UniProt P50636); assay: pull-down; GST-Dorfin (aa 834–840) used to bring down proteins expressed in HEK293T cells, followed by immunoblotting; only the target purified
T1 sequence: VAVQTEI

[2] = biological target: T2, Dorfin (aa 834–840; wild type) in pBHA (mouse) (UniProt P50636); assay: two-hybrid; Dorfin aa 834–840 (WT or I840A) in pBHA (bait vector), PDZ domains in pGAD10 (prey vector); β-galactosidase and HIS3 activity
T2 sequence: VAVQTEI

Molecule | binding [1] | binding [2]
EGFP-SAP97 (full length) (from UniProt Q62696 1-911) | binds | –
PDZ domain of Shank1 in pGAD10 (domain or fragment, UniProt Q9WV48 663-757) TVLLQKKDSEGFGFVLRGAKAQTPIEEFTPTPAFPALQYLESVDEGGVAWRAGLRMGDFLIEVNGQNVVKVGHRQVVNMIRQGGNTLMVKVVMVT | – | no binding
